PubChem BioAssay AID330 (DTP/NCI, 2004)
The list does not hold the whole screen: it is rich in T/C values a quarter to a half above the control, in often repeated tests (any T/C) and in doses without a T/C. Further doses and runs are listed elsewhere. T/C gives the treated animals as a percentage of the vehicle group. Some entries give survivors of the animals treated and no T/C: the source files T/C as zero there, which appears to mark a toxic dose or a test without result, not a measured value. Some survivor counts are full or nearly so, which does not show that the dose was tolerated: the source hardly ever lists a survival T/C far under the control, and the zero likely stands for such cases as well. Survivors were counted at the toxicity check, usually on the fifth day, unless a day is given; later deaths do not show. Schedules are NCI's codes, taken here to give the interval after Q, in days (D) or hours (H), and the number of doses after X. Some structures stand for samples that the source files as different forms (salt, stereo form or complex); doses refer to the form tested. Some entries hold several experiments; their values stand side by side, smallest first. Brackets with × stand for listed records that agree. For survival time, the PubChem record calls one and a half times the control and up active, and a quarter to a half above the control has no call in these data; cut-offs in other NCI protocols can differ. Some T/C values carry the count of animals alive at the toxicity check (mostly the fifth day); where none is given, no animal had died by that day.

Test system: P388 leukemia ip, CD2F1 mice, survival T/C
Test: NCI In Vivo Anticancer Drug Screen. Data for tumor model P388 Leukemia (intraperitoneal) in CD2F1 (CDF1) mice
Settings: T/C endpoint: median survival time, higher T/C = longer survival
[1] = dose: 0.35 mg/kg/injection, schedule: Q01DX009 (ip), vehicle: water
[2] = dose: 0.4 mg/kg/injection, schedule: Q01DX009 (ip), vehicle: water
[3] = dose: 0.65 mg/kg/injection, schedule: Q01DX009 (ip), vehicle: water
[4] = dose: 1.0 mg/kg/injection, schedule: Q01DX005 (ip), vehicle: saline
[5] = dose: 1.0 mg/kg/injection, schedule: Q01DX009 (ip), vehicle: water

SMILES: CO[C@H](C(=O)[C@@H](O)[C@@H](C)O)[C@@H]1Cc2cc3cc(OC4CC(OC5CC(O)C(O)C(C)O5)C(O)C(C)O4)c(C)c(O)c3c(O)c2C(=O)[C@H]1OC1CC(OC2CC(OC3CC(C)(O)C(O)C(C)O3)C(O)C(C)O2)C(O)C(C)O1 (stereo partly drawn)
- survivor count (dose: 0.02 mg/kg/injection, schedule: Q01DX009 (ip), vehicle: saline): 10 of 10
- survivor count (dose: 0.03 mg/kg/injection, schedule: Q01DX009 (ip), vehicle: saline): 10 of 10
- T/C (dose: 0.1 mg/kg/injection, schedule: Q01DX010 (ip), vehicle: water): 109 (4×), 110 [5 of 6 alive], 115, 116, 120, 127 % of control
- T/C (dose: 0.1 mg/kg/injection, schedule: Q01DX015 (ip), vehicle: water): 130 % of control
- T/C (dose: 0.13 mg/kg/injection, schedule: Q01DX005 (ip), vehicle: saline): 126 % of control
- T/C (dose: 0.13 mg/kg/injection, schedule: Q01DX009 (ip), vehicle: saline, evaluated on day 30): 90 and 115 % of control
- T/C (dose: 0.13 mg/kg/injection, schedule: Q01DX009 (ip), vehicle: saline, evaluated on day 35): 136 % of control
- T/C (dose: 0.13 mg/kg/injection, schedule: Q01DX009 (ip), vehicle: saline, evaluated on day 60): 100 and 108 % of control
- T/C (dose: 0.2 mg/kg/injection, schedule: Q01DX009 (ip), vehicle: water, evaluated on day 28): 132 % of control
- T/C (dose: 0.2 mg/kg/injection, schedule: Q01DX009 (ip), vehicle: water, evaluated on day 99): 118, 130, 130 [8 of 10 alive], 130 % of control [9 of 10 alive]
- T/C (dose: 0.2 mg/kg/injection, schedule: Q01DX010 (ip), vehicle: water): 109 (2×), 116, 118 (2×), 120, 120 [5 of 6 alive], 127 [5 of 6 alive], 130 % of control
- T/C (dose: 0.2 mg/kg/injection, schedule: Q01DX015 (ip), vehicle: water): 130 % of control
- T/C (dose: 0.22 mg/kg/injection, schedule: Q01DX005 (ip), vehicle: saline): 126 % of control
- T/C (dose: 0.25 mg/kg/injection, schedule: Q01DX005 (ip), vehicle: saline): 139 % of control
- T/C (dose: 0.25 mg/kg/injection, schedule: Q01DX009 (ip), vehicle: saline, evaluated on day 30): 95 and 115 % of control
- T/C (dose: 0.25 mg/kg/injection, schedule: Q01DX009 (ip), vehicle: saline, evaluated on day 35): 145 % of control
- T/C (dose: 0.25 mg/kg/injection, schedule: Q01DX009 (ip), vehicle: saline, evaluated on day 60): 100 and 112 % of control
- T/C (dose: 0.25 mg/kg/injection, schedule: Q01DX009 (ip), vehicle: water): 112, 114, 115, 123, 125 % of control
- survivor count (dose: 0.25 mg/kg/injection, schedule: Q01DX009 (sc), vehicle: saline): 9 of 10
- survivor count (dose: 0.25 mg/kg/injection, schedule: Q01DX010 (ip), vehicle: saline): 7 of 7
- T/C (dose: 0.25 mg/kg/injection, schedule: Q03HX016 (ip), vehicle: saline): 127 % of control
- T/C (dose: 0.3 mg/kg/injection, schedule: Q01DX010 (ip), vehicle: water): 109, 116, 118 (2×), 118 [5 of 6 alive], 120, 130 (2×), 136 % of control
- T/C (dose: 0.3 mg/kg/injection, schedule: Q01DX015 (ip), vehicle: water): 125 % of control
- T/C [1]: 127, 127 [9 of 10 alive], 130 % of control [9 of 10 alive] (2×)
- survivor count [1]: 6 of 10 and 7 of 9
- T/C (dose: 0.36 mg/kg/injection, schedule: Q01DX005 (ip), vehicle: saline): 132 % of control
- T/C (dose: 0.4 mg/kg/injection, schedule: Q01DX009 (ip), vehicle: other, evaluated on day 5): 131 % of control
- T/C (dose: 0.4 mg/kg/injection, schedule: Q01DX009 (ip), vehicle: other, evaluated on day 23): 131 % of control
- T/C [2]: 144 % of control
- survivor count [2]: 8 of 8
- T/C (dose: 0.4 mg/kg/injection, schedule: Q01DX010 (ip), vehicle: water): 109, 112, 118 (2×), 120, 127, 136, 140 % of control (2×)
- T/C (dose: 0.4 mg/kg/injection, schedule: Q01DX015 (ip), vehicle: water): 130 % of control
- survivor count (dose: 0.5 mg/kg/injection, schedule: Q01DX001 (sc), vehicle: saline): 1 of 10
- T/C (dose: 0.5 mg/kg/injection, schedule: Q01DX009 (ip), vehicle: clinical formulation): 131 % of control [5 of 6 alive]
- T/C (dose: 0.5 mg/kg/injection, schedule: Q01DX009 (ip), vehicle: other, evaluated on day 5): 127 % of control
- T/C (dose: 0.5 mg/kg/injection, schedule: Q01DX009 (ip), vehicle: other, evaluated on day 23): 127 % of control
- T/C (dose: 0.5 mg/kg/injection, schedule: Q01DX009 (ip), vehicle: water, evaluated on day 28): 144 % of control
- T/C (dose: 0.5 mg/kg/injection, schedule: Q01DX009 (ip), vehicle: water, evaluated on day 30): 109, 125, 125 [4 of 6 alive], 126, 149 % of control
- T/C (dose: 0.5 mg/kg/injection, schedule: Q01DX009 (ip), vehicle: water, evaluated on day 99): 136 % of control [8 of 10 alive]
- survivor count (dose: 0.5 mg/kg/injection, schedule: Q01DX009 (ip), vehicle: water): 5 of 10 (2×) and 6 of 10
- survivor count (dose: 0.5 mg/kg/injection, schedule: Q01DX009 (sc), vehicle: saline): 1 of 10
- T/C (dose: 0.5 mg/kg/injection, schedule: Q01DX010 (ip), vehicle: saline): 125 % of control
- T/C (dose: 0.5 mg/kg/injection, schedule: Q01DX010 (ip), vehicle: water): 109, 120, 135, 136, 136 % of control [5 of 6 alive] (2×)
- T/C (dose: 0.5 mg/kg/injection, schedule: Q03HX016 (ip), vehicle: saline): 127 % of control
- T/C (dose: 0.5 mg/kg/injection, schedule: Q04DX003 (ip), vehicle: saline): 127 % of control
- T/C (dose: 0.5 mg/kg/injection, schedule: Q04DX024 (ip), vehicle: saline): 129 % of control
- T/C (dose: 0.6 mg/kg/injection, schedule: Q01DX005 (ip), vehicle: saline): 130 % of control
- T/C (dose: 0.6 mg/kg/injection, schedule: Q01DX009 (ip), vehicle: other, evaluated on day 5): 131 % of control
- T/C (dose: 0.6 mg/kg/injection, schedule: Q01DX009 (ip), vehicle: other, evaluated on day 23): 131 % of control [6 of 8 alive]
- survivor count (dose: 0.6 mg/kg/injection, schedule: Q01DX009 (ip), vehicle: water): 8 of 8
- T/C [3]: 136 % of control [8 of 10 alive]
- survivor count [3]: 1 of 10 (2×), 2 of 10, 4 of 10
- T/C (dose: 0.7 mg/kg/injection, schedule: Q01DX009 (ip), vehicle: water): 141 % of control
- survivor count (dose: 0.8 mg/kg/injection, schedule: Q01DX009 (ip), vehicle: other): 5 of 8
- survivor count (dose: 0.8 mg/kg/injection, schedule: Q01DX009 (ip), vehicle: water): 0 of 10 (2×), 3 of 10, 7 of 10, 7 of 8
- survivor count (dose: 1.0 mg/kg/injection, schedule: Q01DX001 (sc), vehicle: saline): 0 of 10
- survivor count (dose: 1.0 mg/kg/injection, schedule: Q01DX005 (ip), vehicle: clinical formulation): 5 of 8
- T/C [4]: 147 % of control [7 of 8 alive]
- survivor count [4]: 4 of 10
- T/C (dose: 1.0 mg/kg/injection, schedule: Q01DX005 (ip), vehicle: water): 126 % of control
- survivor count (dose: 1.0 mg/kg/injection, schedule: Q01DX009 (ip), vehicle: clinical formulation): 2 of 6 and 4 of 6
- survivor count (dose: 1.0 mg/kg/injection, schedule: Q01DX009 (ip), vehicle: saline): 4 of 10 and 8 of 10
- T/C [5]: 149 % of control [4 of 6 alive]
- survivor count [5]: 3 of 6, 4 of 6, 5 of 6
- survivor count (dose: 1.0 mg/kg/injection, schedule: Q01DX009 (sc), vehicle: saline): 1 of 10
- survivor count (dose: 1.0 mg/kg/injection, schedule: Q01DX010 (ip), vehicle: saline): 6 of 7
- T/C (dose: 1.0 mg/kg/injection, schedule: Q03HX016 (ip), vehicle: saline): 145 % of control
- survivor count (dose: 1.0 mg/kg/injection, schedule: Q04DX024 (ip), vehicle: saline): 10 of 10
- survivor count (dose: 1.67 mg/kg/injection, schedule: Q01DX005 (ip), vehicle: clinical formulation): 2 of 8
- survivor count (dose: 2.0 mg/kg/injection, schedule: Q01DX001 (ip), vehicle: saline): 2 of 10
- survivor count (dose: 2.0 mg/kg/injection, schedule: Q01DX001 (sc), vehicle: saline): 1 of 10
- survivor count (dose: 2.0 mg/kg/injection, schedule: Q01DX005 (ip), vehicle: water): 0 of 5
- survivor count (dose: 2.0 mg/kg/injection, schedule: Q01DX009 (ip), vehicle: clinical formulation): 0 of 6 and 1 of 6
- survivor count (dose: 2.0 mg/kg/injection, schedule: Q01DX009 (ip), vehicle: saline): 3 of 6
- survivor count (dose: 2.0 mg/kg/injection, schedule: Q01DX009 (ip), vehicle: water): 0 of 6, 1 of 6, 2 of 6, 3 of 6
- survivor count (dose: 2.0 mg/kg/injection, schedule: Q01DX009 (sc), vehicle: saline): 0 of 10
- survivor count (dose: 2.0 mg/kg/injection, schedule: Q01DX010 (ip), vehicle: saline): 0 of 7
- survivor count (dose: 2.0 mg/kg/injection, schedule: Q03HX008 (ip), vehicle: saline): 3 of 10
- survivor count (dose: 2.0 mg/kg/injection, schedule: Q03HX016 (ip), vehicle: saline): 7 of 10
- survivor count (dose: 2.0 mg/kg/injection, schedule: Q04DX003 (ip), vehicle: saline): 2 of 10
- survivor count (dose: 2.0 mg/kg/injection, schedule: Q04DX024 (ip), vehicle: saline): 1 of 10
- survivor count (dose: 2.0 mg/kg/injection, schedule: Q08DX002 (ip), vehicle: saline): 3 of 10
- survivor count (dose: 4.0 mg/kg/injection, schedule: Q01DX001 (sc), vehicle: saline): 1 of 10
